Experimental data from patent US7301006 (dated 2007).

Experiment: general procedure: peptide synthesis; 2-chlorotrityl resin, pre-loaded (0.5 mmol/g); PyBOP/collidine (manual syntheses)
Conditions: whole synthesis; for isolated yield: based on resin loading
[1] = scale of the general procedure 0.025 mmol

Substance: AcYEYSLDYDF
- crude mass: 17 mg
- isolated mass: 4.6 mg
- isolated yield (overall, scale of the general procedure 0.025 mmol): 5.2%
- difficulty met [1]: proceeded somewhat less efficiently, yielding several apparent deletion peptides

Substance: AcYSEYSLDYSDF
- isolated yield (minus resin for characterization, scale 0.025 mmol): 27%
- crude mass (scale 0.025 mmol): 28 mg
- isolated mass (scale 0.025 mmol): 8 mg

Substance: FmocYSEYSLDYSDF
- outcome [1]: generated in the attempted synthesis of FmocYSEYSLDYSDF (SEQ ID NO 2) via the stepwise protocol
